Measured values from patent US20260166021A1, “POLYMORPHIC FORMS OF A SOLUBLE EPOXIDE HYDROLASE INHIBITOR AND FORMULATIONS THEREOF” (EicOsis, LLC, priority 2022, published 2026).

Assay: Crystallization of Formula (I) in single- and binary-solvent systems (resultant XRD pattern)
Protocol: Formula (I) crystallization was first analyzed in single-solvent systems lacking antisolvent. […] Fast cooling was performed by placing the vials in a 4° C. refrigerator for 24 hours, while slow cooling was performed by decreasing the temperatures of the vials by 20° C./h with stirring. The resulting solids were isolated by centrifuge filtration through […] centrifuge filters. When solids were not produced, the solution was evaporated under nitrogen as an additional attempt to obtain solid. All obtained solids were analyzed by XRD to determine the solid pattern.
Formula (I) recrystallization was then tested with binary-solvent systems containing water, n-heptane, or c-hexane as antisolvent. […] Anti solvents were added drop-wise at the same temperature until precipitate was observed or the vial volume was reached (˜7 mL). The vials were quickly cooled to 4° C. or slowly cooled by 20° C./hour as in the single-solvent recrystallizations. The resulting solids were isolated by centrifuge filtration. The samples without precipitation were evaporated to dryness under a gentle stream of nitrogen gas as an additional attempt to obtain solid. All obtained solids were analyzed by XRD to determine the solid form. […]

## CC[C@H](C)C(=O)N1CCC(NC(=O)Nc2ccc(OC(F)(F)F)c(F)c2)CC1 [Formula (I) FORM A]
ACN, 70° C., Slow (20° C./h) cooling
  XRD pattern of solid after single-solvent crystallization: A +
Acetone, 50° C., Fast (4° C.) cooling
  XRD pattern of solid after single-solvent crystallization: E +
Acetone, 50° C., Slow (20° C./h) cooling
  XRD pattern of solid after single-solvent crystallization: B +
EtOAc, 70° C., Fast (4° C.) cooling
  XRD pattern of solid after single-solvent crystallization: G +
EtOAc, 70° C., Slow (20° C./h) cooling
  XRD pattern of solid after single-solvent crystallization: B +
MEK, 70° C., Fast (4° C.) cooling
  XRD pattern of solid after single-solvent crystallization: G +
MIBK, 70° C., Slow (20° C./h) cooling
  XRD pattern of solid after single-solvent crystallization: H*
n-BuOH, 70° C., Fast (4° C.) cooling
  XRD pattern of solid after single-solvent crystallization: B*
